Test results published in PubChem BioAssay AID720591 (Broad Institute, 2013).
In all, about 1,200 compounds went through this assay and about 60 (5%) were called active. Roughly 1% stayed inconclusive and do not appear here.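 The calls were made as follows: active = Decreasing signal and fitted IC50 at most twice the top valid tested dose; inconclusive = Bad fit or a level curve showing 30 to 70% inhibition; inactive = the rest.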 The list shows a part of the results. Potency and affinity values are given separately.

Sequences of proteins named here, by UniProt entry; tags and fusion partners are left off. A change or cut given only in a name is not applied to a line headed by its entry.
UniProt Q9NXA8: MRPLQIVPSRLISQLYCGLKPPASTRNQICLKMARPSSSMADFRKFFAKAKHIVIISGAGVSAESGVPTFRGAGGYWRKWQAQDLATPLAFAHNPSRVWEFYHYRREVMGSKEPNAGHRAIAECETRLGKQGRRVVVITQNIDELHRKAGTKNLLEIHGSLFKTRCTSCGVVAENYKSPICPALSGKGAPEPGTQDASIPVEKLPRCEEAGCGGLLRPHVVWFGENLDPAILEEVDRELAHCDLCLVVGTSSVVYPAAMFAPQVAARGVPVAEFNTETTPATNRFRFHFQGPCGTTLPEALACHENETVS

target: NAD-dependent protein deacylase sirtuin-5, mitochondrial (Homo sapiens) (UniProt Q9NXA8); assay: sirtuin-5 deacylation blockers, concentration series – biochemical, fluorescence imaging, cherry-pick, set 5, dose response (AID 720591); conditions: Purified SirT5, succinyl-peptide AMC, trypsin-coupled fluorescence; at 15 µM (top of the series) unless noted;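 also: 0% = median of neutral control wells and -100% = median of positive control wells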

Activity change, negative = inhibition, inactive:
O=C(CCCl)Nc1nnc(SCC(=O)NC2CCCC2)s1 1.62%
C=CCNc1nc2c(c(=O)[nH]c(=O)n2C)n1Cc1cccc(C)c1 -16.2%
Cc1ccc(-c2ccc(=O)n(CC(=O)Nc3ccc4c(c3)OCCO4)n2)cc1 16.6%
Cc1cccc(NC(=O)c2nc[nH]c2C(=O)NC[C@H](C)O)c1 -25%
C[C@@H]1CN([C@@H](C)CO)C(=O)c2cc(NC(=O)C3CC3)ccc2O[C@H]1CN(C)C -30.2%
Cc1noc(C)c1COc1ccc(C(=O)N2CCN(S(=O)(=O)c3cccc(F)c3)CC2)cc1 -6.62%
COC(=O)c1cn(C(=O)c2ccccc2Cl)c2ccccc12 30.1%
COc1ccc(S(=O)(=O)N2CCCCCC2)cc1C(=O)N(C)CC(=O)Nc1ccc(F)cc1 3.48%
O=C(c1cccc(F)c1)N1CCCC(C(=O)N2CCCCCC2)C1 (stereo not given) 16.1%
CC1(C)NC(=O)N(CCOCCOc2ccccc2-c2ccccc2)C1=O 8%
CCN(CC(=O)Nc1cc(Cl)ccc1-n1cncn1)Cc1nc2ccccc2c(=O)[nH]1 -29.4%
CC1c2nc3ccccc3n2C(CC(=O)NC2CC2)C(=O)N1Cc1ccccc1 (stereo not given) 4.72%
COc1ccc(CN(C(=O)c2ccco2)c2ccccc2)cc1 13.5%
Cc1ccc(N(CC(=O)NC(C)(C)C)C(=O)CS(=O)CC(=O)Nc2ccc(F)cc2)cc1 (stereo not given) -30%
O=C(COC(=O)CNC(=O)c1ccccc1)NC(=O)NC1CCCCC1 -17.8%
Cc1ccc(N(C(=O)CS(=O)CC(=O)Nc2ccc(F)cc2)C(C)C(=O)NC(C)(C)C)cc1 (stereo not given) -21.8%
CCOc1ccc2nc(SCC(=O)NCc3ccc(OC)cc3)[nH]c2c1 -23.5%
CC(=O)Nc1cccc(-c2nn[nH]n2)c1 6.01%
COc1ccccc1N1CCN(CC(=O)Nc2c(C)n(C)n(-c3ccccc3)c2=O)CC1 -25.9%
Cc1ccn2cc(CSc3ccccc3)nc2c1 6.69%
Cc1cc(C)cc(N(C(=O)c2csnn2)C(C(=O)NC(C)(C)C)c2ccccn2)c1 (stereo not given) 4.39%
Cc1cc(C)cc(N(C(=O)CCC(=O)Nc2cc(C)on2)C(C(=O)NC2CCCC2)c2ccco2)c1 (stereo not given) -2.73%
O=C(O)c1cc(Cl)ccc1-c1ccc(/C=C/c2cc(C(F)(F)F)[nH]c(=O)n2)o1 -4.33%
Fc1ccccc1Cc1noc(CN2CCCC(CN3CCOCC3)C2)n1 (stereo not given) -4.94%
Cc1ccc(CNC(=O)CCCCCNC(=O)N2CCn3c2nc2ccccc23)cc1 -20.1%
COc1ccc(C(=O)C2CCCN(S(=O)(=O)C(C)C)C2)c(C)c1 (stereo not given) -23%
COc1ccc(CN2CCN(CCCc3ccccc3)C(CCO)C2)c(OC)c1 (stereo not given) 20.8%
Cc1ccc2c(c1)CO[C@@]21O[C@H](CCO)C[C@H](O)[C@H]1O 3.11%
Cc1onc(-c2ccccc2)c1C(=O)c1c[nH]c(C(=O)NCc2ccccn2)c1 -14.3%
Cc1ccc(S(=O)(=O)N2CCOCC2)cc1NC(=O)CSc1nnc2n1CCCCC2 -29.9%
Cc1sc(NC(=O)c2ccco2)c(C(c2ccccc2)N2CCC(C)CC2)c1C (stereo not given) -24.6%
CCCCOC(=O)c1sc2nc(N3CCOCC3)c3c(c2c1N)CC(C)(C)OC3 15.6%
Nc1nc(-c2ccc(C(=O)O)cc2)cs1 -22.5%
Cc1ccc(C(C(=O)NC(C)(C)C)N(Cc2ccco2)C(=O)CCC(=O)Nc2ccccn2)cc1 (stereo not given) -11.8%
CC(C)(C)N(Cc1ccccc1)C(=O)c1ccc(Br)o1 4.01%
C[C@H](CO)N1C[C@H](C)[C@@H](CN(C)CC2CC2)Oc2c(NC(=O)Cc3ccccc3)cccc2C1=O -31.4%
CC(NC(=O)c1ccncc1)C(c1cccs1)N1CCOCC1 (stereo not given) 22.9%
COc1cccc(-c2ccc3c(c2)O[C@H](CN(C)C(=O)c2ccccc2F)[C@H](C)CN([C@H](C)CO)S3(=O)=O)c1 -23.4%
O=C(COc1ccc(Cl)cc1Cl)Nc1ccc(CN2CCOCC2)cc1 5.05%
CCCCn1c(N)c(N(CCOC)C(=O)c2c(CC)noc2C)c(=O)[nH]c1=O -31.8%
CCOc1ccc(-c2noc(CCCC(=O)NC3CCCC3)n2)cc1OC 1.29%
Cc1csc(NC(=O)c2cc3ccccc3o2)n1 12.3%
O=C(Nc1cccc(Cl)c1)Nc1cccc(C(=O)O)c1 -26.9%
C/C(N)=C(/C#N)C(=O)CSc1nnc(Nc2ccccc2)s1 -26.5%
COc1ccc(S(=O)(=O)N2CCOc3ccccc32)cc1 -30%
CC(=O)c1cc(-c2ccc(F)cc2)n(CCC(=O)NC(C)(C)C)c1C 40.1%
CCOc1ccc(C(C)C)cc1S(=O)(=O)n1ccnc1C -11.2%
CCCc1cc(=O)oc2cc(C)cc(OCC(=O)NCCCN3CCCC3=O)c12 -12.3%
COc1ccc2cc3cc(C(=O)NCCCN4CCc5ccccc5C4)sc3nc2c1 -24.2%
COc1cnn(-c2ccc(Br)cc2)c(=O)c1SCc1ccccc1 -23.7%
Cc1cc(C)n(CC(=O)c2cccc(N)c2)n1 8.12%
Cc1ccc(OCCNC(=O)C2CCCCC2)cc1 7.97%
Cc1ccc2nc(SC(C)C(=O)N3CC(C)OC(C)C3)[nH]c2c1 (stereo not given) 11%
Cc1c(Cc2ccc3c(c2)OCO3)sc(NC(=O)c2ccccc2)c1C(N)=O -11.1%
CC(C)(C)OC(=O)NCCCC[C@H](NC(=O)c1nc[nH]c1C(=O)NCC(=O)OCc1ccccc1)C(=O)OC(C)(C)C -29%
CCOc1ccccc1NC(=O)COC(=O)CC(C)(C)CC1=NS(=O)(=O)c2ccccc2N1 -22.2%
Cn1nnnc1SCC(=O)NNC(=O)c1ccc(Br)cc1 -20.3%
N#Cc1c(SCC(=O)Nc2nccs2)sc2c(O)cc(=O)[nH]c12 -20.5%
Cc1nc(NC(=O)c2cc3ccccc3o2)sc1C 7.97%
CCc1ccc(S(=O)(=O)c2ccc(-n3nc(C)cc3N)cc2)cc1 21.2%
O=C(c1ccc(Cl)cc1)C1CCCN(C(=O)c2csnn2)C1 (stereo not given) 9.65%
CCOC(=O)CC1C(=O)NCCN1C1CCCC1 (stereo not given) 3.55%
Cc1cc(N2CCN(C)CC2)nc2ccc(NC(=O)CCC(=O)NCCc3ccc(Cl)cc3)cc12 -21.9%
COC(=O)c1cc(S(=O)(=O)NCc2ccc(Br)cc2)c[nH]1 -13.8%
CC(=O)N1N=C(N)SC12CCCC2 -1.47%
O=C(O)CSCC(=O)Nc1ccc(Br)c(C(F)(F)F)c1 -21.2%
COc1ccc2c(CN3CCCC3)cc(=O)oc2c1 22.9%
CN(C)CCn1c(NCc2ccc3c(c2)OCO3)nc2ccccc21 2.08%
CCc1cc2ccc(OC)cc2nc1SCC(=O)Nc1cc(C)on1 1.38%
Cc1nn(-c2ccccc2)c2c1c(C)c(CCC(=O)NCC1CCCO1)c(=O)n2C (stereo not given) -0.213%
CCCCNC(=O)N1CCN(Cc2ccc(F)cc2)CC1 -9.24%
CCCNS(=O)(=O)c1cc2c3c(c1)C(C)C(=O)N3CCC2 (stereo not given) -20.1%
Cc1ccccc1CN1CCN(Cc2ccc3cccc(F)c3n2)CC1CCO (stereo not given) -26.9%
CNC(=O)CSc1nnc(-c2ccco2)n1-c1ccc(C)cc1 -17.9%
C[C@H]1CN([C@@H](C)CO)C(=O)c2cc(Br)cnc2O[C@H]1CN(C)C(=O)c1ccccn1 24.1%
Cc1ccc(NC(=O)CN2CCOCC2)cc1Cl 10.2%
O=C(Nc1ccccc1)c1cccc(Cn2cc(C(F)(F)F)ccc2=O)c1 -12.3%
Cc1ccc(CNC(=O)C2CCCN(c3nc4ccsc4c(=O)s3)C2)cc1 (stereo not given) 8.12%
C=CCn1ncc(OC)c(Cl)c1=O 9.56%
C=CC[C@@H](CC(=O)N(CCO)Cc1ccccc1)C(=O)N[C@H](COC(=O)[C@@H](CC=C)CC(=O)OC(C)(C)C)c1ccccc1 -2.59%
Cc1csc(CNc2ncnc3ccc(-c4cccc(Cl)c4)cc23)c1 -33.7%
COc1ccc(Cc2c(-c3cccc(Cl)c3)nc3ccc(C)cn23)c(C)c1 18.1%
NC(=O)NC(CC(=O)NCCc1ccc(S(N)(=O)=O)cc1)c1ccc(Cl)cc1 (stereo not given) -21.5%
O=C(C1CCCCC1)N1C[C@@H](O)[C@H](n2cc(-c3ccc(F)cc3)nn2)C[C@@H]1c1ccccc1 -8.98%
O=C1NC(Cc2ccc(O)cc2)c2nc3ccc(F)cc3c(=O)n2-c2ncccc21 (stereo not given) -12.6%
Cc1ccc(C(=O)N(C)CC(=O)Nc2ccc(Cl)c(C(F)(F)F)c2)cc1S(=O)(=O)N1CCCCC1 -22.8%
Cc1nnc(SCC(=O)Nc2ncc3c(n2)CC(c2ccccc2)CC3=O)s1 (stereo not given) -14%
CC1CN(C(=O)Nc2ccc(Br)cc2Cl)CC(C)O1 (stereo not given) 11%
CC12CCC3c4ccc(OCC(=O)O)cc4CCC3C1CCC2=O (stereo not given) -12.5%
CCOc1ccc(C(C(=O)NCC2CCCO2)N(Cc2cccs2)C(=O)c2snc(C(N)=O)c2N)cc1 (stereo not given) -12.1%

Part of the list above in order of heavy-atom count, rising.
Activity change, negative = inhibition, inactive:
COC(=O)c1cc(S(=O)(=O)NCc2ccc(Br)cc2)c[nH]1 -13.8%
C/C(N)=C(/C#N)C(=O)CSc1nnc(Nc2ccccc2)s1 -26.5%
Cc1ccc2nc(SC(C)C(=O)N3CC(C)OC(C)C3)[nH]c2c1 (stereo not given) 11%
COc1ccc(CN2CCN(CCCc3ccccc3)C(CCO)C2)c(OC)c1 (stereo not given) 20.8%
Cc1ccc(N(CC(=O)NC(C)(C)C)C(=O)CS(=O)CC(=O)Nc2ccc(F)cc2)cc1 (stereo not given) -30%
C[C@H](CO)N1C[C@H](C)[C@@H](CN(C)CC2CC2)Oc2c(NC(=O)Cc3ccccc3)cccc2C1=O -31.4%
